From paper PMC11772500
Results are given in words; binding and its absence hold for the method and conditions named. Some entries that bind do so weakly or less than the wild type.

Amino acid sequences for entries named in this document (tags omitted). A change or cut given only in a name is not applied to a line headed by its entry. Chains listed by the source or under a name are the forms on record and can include a tag or linker. Residues count along the entry.
SUMO-His-tagged WT MSP domain of VAPB (O95292, residues 7-124): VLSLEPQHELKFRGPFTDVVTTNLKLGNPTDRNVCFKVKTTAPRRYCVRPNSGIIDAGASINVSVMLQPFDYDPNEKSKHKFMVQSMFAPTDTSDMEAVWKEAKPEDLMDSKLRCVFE
untagged P56S MSP domain of VAPB (O95292, form named): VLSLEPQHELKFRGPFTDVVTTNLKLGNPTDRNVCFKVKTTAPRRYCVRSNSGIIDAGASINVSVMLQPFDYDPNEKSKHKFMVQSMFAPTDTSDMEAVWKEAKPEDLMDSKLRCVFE

Columns and labels:
[1] = target: SUMO-His-tagged P56S MSP domain of VAPB (human) (UniProt O95292); experiment: polyacrylamide gel of unboiled samples (Ponceau S staining, Western blot); 6 ug of purified SUMO-His-tagged MSP domain in sample buffer with or without reducing agents (DTT 10 and 20 mM), 12% polyacrylamide gel, samples not boiled; DTT reduced the multimeric forms of P56S; both purified
[2] = target: SUMO-His-tagged WT MSP domain of VAPB (human) (UniProt O95292); experiment: pull-down; 4 ug SUMO-His-tagged WT or P56S MSP domain on Ni-NTA agarose as bait, 4 ug untagged WT or P56S MSP domain as prey; overnight at 4°C; 25 m Tris-HCl pH 7.4, 150 mM NaCl, 0.2% Triton X-100, 0.5 mg/ml BSA; with or without 1 mM DTT (association counteracted by reducing agents); prey detected by anti-VAPB blot; both purified
[3] = target: SUMO-His-tagged P56S MSP domain of VAPB (human) (UniProt O95292); experiment: as above

SUMO-His-tagged P56S MSP domain of VAPB (from UniProt O95292 7-124) (domain or fragment)
binding [1]: binds

untagged P56S MSP domain of VAPB (from UniProt O95292 7-124) (domain or fragment)
binding [2]: binds
binding [3]: binds
